This experiment can be described thus: qHTS Assay for Modulators of Lamin A Splicing. To be noted: HeLa LMNA splicing GFP/RFP minigene ratio, 48 h. The method, boiled down: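 S3 HeLa cells stably expressing lamin A-EGFP splicing minigene plus DsRed2, 600 cells/well, 48 h compound exposure at 37C. Laser-scanning cytometry; analysed as GFP (500-530 nm)/RFP (575-640 nm) total intensity ratio; 0.5% DMSO vehicle.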

[1] abbreviates: measured here: RFP viability control channel.
Where [2] appears, read: measured here: GFP splicing reporter channel.

For orientation: AC50 means the concentration at which the activity in the assay is half-maximal.

Values joined by “and” are separate entries in the source; they are usually repeats but may differ in a detail not shown here. Equal entries are not always repeated. The list shows a part of the results. Shown are side measurements of this screen, not its main read-out; they come without a call. Compounds called inactive in the main read-out are mostly missing here. Potencies come from curve fits of mixed quality, noted in brackets.

On to `Cc1ccccc1NC(=O)CSc1[nH]c(=O)cc(C)c1C#N`, for which, under setting [1], the half-maximal activity concentration (AC50) was 15.8 µM [rising, single point].

Turning to `COc1ccc(C2CC(c3ccccc3)=NN2S(=O)(=O)c2ccccc2)c(OC)c1` (centres undefined), the AC50 under setting [1] was 12.6 µM [rising, partial curve, poor fit]. In the case of `O=C1CCCC(O)=C1C=NCc1ccccc1`, under setting [1], the concentration at half-maximal activity (AC50) is 10 µM [rising, single point].

Consider `N#Cc1ccccc1NC(=O)c1ccc2c(Cl)c3c(nc2c1)CCCC3`, for which, under setting [1], the half-maximal activity concentration (AC50) was 2 µM [rising, partial curve]. For `Cc1ccccc1Nc1sc(C(=O)c2ccccc2)c(N)c1C(=O)NCc1ccc(Cl)cc1`, the concentration at half-maximal activity (AC50) runs as follows: under setting [2], 22.4 µM [falling, single point]; under setting [1], 25.1 µM [falling, single point].

As to `C=CCn1c(-c2csc3c2CCC(C)C3)n[nH]c1=S` (centres undefined), the AC50 under setting [2] was 14.1 µM [rising, partial curve, poor fit] and the half-maximal activity concentration (AC50) under setting [1] is 22.4 µM [rising, single point]. For `O=C1C(c2cc(=O)c3ccccc3[nH]2)=C(O)c2ccccc21`, the AC50 by setting is: under setting [2], 14.1 µM [rising, partial curve, poor fit]; under setting [1], 35.5 µM [rising, single point].

Consider `O=C(O)C(O)C(O)c1nc2ccccc2[nH]1` (centres undefined), for which the half-maximal activity concentration (AC50) under setting [2] was 35.5 µM [falling, partial curve, poor fit]. As to `COC(=O)c1ccccc1NC(=O)c1cc2ncc(Br)cn2n1`, under setting [1], the concentration at half-maximal activity (AC50) was 0.0251 µM [rising, full curve, poor fit].

With `CC(=O)c1cccc(NC(=O)c2ccco2)c1`, under setting [1], the AC50 was 2.51 µM [falling, partial curve, poor fit]. Consider `CSc1cnn(Cc2ccccc2)c(=O)c1SCc1ccccc1`, for which the AC50 under setting [2] is 31.6 µM [rising, single point] and the half-maximal activity concentration (AC50) under setting [1] is 17.8 µM [rising, single point]. `O=C(NCCc1ccccc1)C1(c2cccs2)CCOCC1`: the concentration at half-maximal activity (AC50) under setting [2] was 0.002 µM [falling, full curve, poor fit]. `Cc1cc(Cl)ccc1OCc1nnc2n1CCCCC2`: under setting [2], the half-maximal activity concentration (AC50) is 0.0794 µM [falling, full curve, poor fit]. Consider `Cc1ccc(NC(=O)CNS(=O)(=O)c2cccs2)cc1F`, for which the AC50 is 11.2 µM [rising, single point] under setting [2] and 15.8 µM [rising, partial curve] under setting [1]. With `COc1cccc(C(=O)N2c3nc(-c4ccco4)nn3C3(CCCCC3)[C@@H]3CCCC[C@@H]32)c1`, the AC50 under setting [2] was 28.2 µM [rising, single point]. Turning to `COC(=O)CNc1cccc(C(F)(F)F)c1`, the half-maximal activity concentration (AC50) under setting [1] was 0.282 µM [falling, full curve, poor fit].

Take `Cc1ccc(C(O)(c2ccccc2)c2ccccc2C(C)N(C)C)c(C)c1` (centres undefined): the AC50 runs as follows: under setting [2], 22.4 µM [falling, single point]; under setting [1], 22.4 µM [falling, partial curve].

In the case of `Cc1ccccc1N1CCN(CCCOc2ccc3c(C)cc(=O)oc3c2)CC1`, the half-maximal activity concentration (AC50) under setting [1] is 35.5 µM [rising, single point]. On to `COCCN1C(=O)N[C@H](c2cccc(C(F)(F)F)c2)C(C(=O)OC)=C1C`, for which the AC50 was 10 µM [rising, partial curve, poor fit] under setting [2] and 11.2 µM [rising, partial curve, poor fit] under setting [1]. On to `CCCN1C(=O)N(C)C(N(O)C(=O)NC)C1(C)C` (centres undefined), for which the AC50 under setting [2] is 31.6 µM [rising, partial curve, poor fit]. As for `CCCn1nc(C(=O)Nc2ccc3nc(C)sc3c2)c2ccccc2c1=O`, the concentration at half-maximal activity (AC50) under setting [1] is 31.6 µM [rising, single point]. Consider `CCC(C)NC(=O)C1CCCN(C(=O)Nc2ccc(F)cc2)C1` (centres undefined), for which the concentration at half-maximal activity (AC50) reads like this: under setting [2], 2.82 µM [rising, partial curve]; under setting [1], 3.55 µM [rising, partial curve]. On to `Cc1nc(N2CCOCC2)c2c(C(=O)NCCc3ccccc3)c(C)oc2n1`, for which the half-maximal activity concentration (AC50) under setting [2] is 4.47 µM [falling, partial curve, poor fit] and the AC50 under setting [1] is 2.51 µM [falling, partial curve, poor fit]. Regarding `N#C/C(=C(/O)c1ccco1)c1nc2ccccc2s1`, the AC50 was 11.2 µM [falling, single point] under setting [2] and 35.5 µM [falling, single point] under setting [1]. As to `N#C/C(=C\c1ccc(O)c(O)c1)C(=O)NCc1ccccc1`, the AC50 is 0.00112 µM [falling, full curve, poor fit] under setting [2] and 15.8 µM [falling, single point] under setting [1]. For the compound `O=C(CSc1nnc(Cc2ccccc2)o1)N1CCOCC1`, the AC50 is, setting by setting: under setting [2], 0.501 µM [falling, full curve, poor fit]; under setting [1], 0.501 µM [falling, full curve, poor fit]. For `O=C(Nc1nnc(-c2ccco2)o1)c1ccc2ccccc2c1`, the AC50 reads like this: under setting [2], 17.8 µM [rising, partial curve]; under setting [1], 22.4 µM [rising, partial curve].

In the case of `NC(=O)c1oc2ccccc2c1NC(=O)C1COc2ccccc2O1` (centres undefined), the AC50 under setting [1] was 0.0224 µM [rising, full curve, poor fit].

For the compound `C#C[C@]1(O)CC[C@H]2[C@@H]3CCC4=CC(=O)CC[C@@H]4[C@H]3CC[C@@]21CC`, the half-maximal activity concentration (AC50) runs as follows: under setting [2], 11.2 µM [rising, partial curve, poor fit] and 2.82 µM [rising, full curve]; under setting [1], 2.82 µM [rising, full curve]. With `CSc1ccccc1C(=O)N1CCN(c2cccc(Cl)c2)CC1`, under setting [1], the AC50 was 0.355 µM [rising, full curve]. In the case of `COc1ccc(-n2c(=O)c(-c3cn(C)c4ccccc34)nc3cnc(N4CCNCC4)nc32)cc1`, the concentration at half-maximal activity (AC50) is 20 µM [falling, partial curve] under setting [2] and 17.8 µM [falling, partial curve] under setting [1]. `CC(/C=N/n1cnnc1)=C\c1ccccc1`: the half-maximal activity concentration (AC50) under setting [1] is 35.5 µM [falling, single point]. As for `CCCN[C@@H](C)C(=O)Nc1ccccc1C`, under setting [2], the AC50 is 0.0251 µM [falling, partial curve, poor fit]. On the same count and under the same terms, the figure for `O=C(CCC(=O)N1CC2CCCN2c2ccccc21)NCc1cccc(Cl)c1` (centres undefined) is 0.0282 µM [falling, full curve, poor fit]. Take `COc1ccc(C)cc1NC(=O)COC(=O)C1CCN(C(=O)c2ccc(Cl)cc2)CC1`: the concentration at half-maximal activity (AC50) runs as follows: under setting [2], 0.0126 µM [falling, full curve, poor fit]; under setting [1], 0.0447 µM [falling, full curve, poor fit]. For the compound `Cc1ccc2oc(-c3cccc(NC(=S)NC(=O)/C=C/c4ccco4)c3)nc2c1`, the half-maximal activity concentration (AC50) reads like this: under setting [2], 11.2 µM [falling, single point]; under setting [1], 12.6 µM [falling, partial curve]. In the case of `CCCC1=[N+](CC(=O)c2ccc(C)cc2)CCn2cccc21`, the concentration at half-maximal activity (AC50) under setting [1] is 22.4 µM [rising, single point]. As to `N#CC(=C(\N)Sc1ccccc1N)/C(C#N)=C(/N)Sc1ccccc1N`, the AC50 under setting [2] was 2.24 µM [falling, partial curve] and the half-maximal activity concentration (AC50) under setting [1] was 0.398 µM [falling, full curve, poor fit]. Consider `COc1cccc(-n2c(SCC(=O)c3c[nH]c4ccccc34)nc3ccccc3c2=O)c1`, for which, under setting [1], the concentration at half-maximal activity (AC50) was 35.5 µM [rising, single point]. Regarding `Fc1ccc(/C=C\c2nccc3c2[nH]c2ccccc23)cc1`, the AC50 under setting [2] was 22.4 µM [falling, single point]. Turning to `CN(C)c1ccnc(-c2cccc(NS(C)(=O)=O)c2)n1`, the AC50 under setting [2] is 17.8 µM [rising, single point] and the half-maximal activity concentration (AC50) under setting [1] is 15.8 µM [rising, single point]. On to `Cc1nc2cc(C(F)(F)F)ccc2n1C`, for which the half-maximal activity concentration (AC50) under setting [2] is 0.891 µM [falling, full curve, poor fit].

In the case of `CC(=O)c1c(C)nn(CC(O)COc2ccc3c(c2)CCC3)c1C` (centres undefined), under setting [1], the AC50 was 11.2 µM [rising, partial curve]. For `COc1ccc(NS(=O)(=O)c2ccc3oc(SC4CCOC4=O)nc3c2)cc1` (centres undefined), the AC50 is 10 µM [falling, partial curve] under setting [2] and 8.91 µM [falling, partial curve] under setting [1]. Consider `COC(=O)c1cc2c([nH]c3ccccc32)c(C)n1`, for which, under setting [1], the AC50 is 10 µM [rising, partial curve, poor fit]. As for `CCOc1cc(NC(=S)NC)c(OCC)cc1NC(=O)c1ccc(OC)cc1`, the AC50 under setting [2] is 0.0631 µM [rising, full curve, poor fit]. As to `CC(C)=N/N=C1/NC(=O)C(CC(=O)Nc2cc(Cl)ccc2C)S1` (centres undefined), the AC50 was 7.08 µM [rising, partial curve, poor fit] under setting [2] and 0.0891 µM [rising, full curve, poor fit] under setting [1]. As to `O=C(CN1c2ccccc2Sc2ccccc21)NNC(=S)Nc1ccc(Cl)cc1Cl`, the AC50 runs as follows: under setting [2], 25.1 µM [falling, single point]; under setting [1], 20 µM [falling, single point]. For `COc1ccc(/C=C2\CCCC3C2=NN(C(=O)CSc2n[nH]c(N)n2)C3c2ccc(OC)cc2)cc1` (centres undefined), the AC50 was 31.6 µM [falling, partial curve, poor fit] under setting [2] and 20 µM [falling, partial curve] under setting [1].

Regarding `Cc1ccc(OCC(=O)N/N=C/c2c[nH]c3ccccc23)c([N+](=O)[O-])c1`, the AC50 was 7.08 µM [rising, partial curve] under setting [2] and 7.08 µM [rising, partial curve] under setting [1]. On to `COCCN(CC(=O)Nc1cccc(C)c1)S(=O)(=O)c1ccc(S(=O)(=O)N2CCCC2)cc1`, for which the half-maximal activity concentration (AC50) under setting [2] was 3.98 µM [rising, partial curve]. In the case of `CCC(COC(=O)Nc1cccc(C)c1)NC(=O)OCC(C)C` (centres undefined), the concentration at half-maximal activity (AC50) reads like this: under setting [2], 14.1 µM [rising, partial curve, poor fit]; under setting [1], 35.5 µM [rising, single point].

On to `O=C(c1ccc(COc2ccccc2[N+](=O)[O-])o1)N1CCCCC1`, for which the AC50 reads like this: under setting [2], 7.08 µM [rising, partial curve, poor fit]; under setting [1], 6.31 µM [rising, partial curve, poor fit].
